Source: the supplement of paper PMC12823440, “Inhibitors supercharge kinase turnover through native proteolytic circuits” (Nature, 2025)
Where a name gives a salt, the structure may show the parent alone. Some of the results follow. The calls rarely recur for the same compound in another form.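 Kinases, fused to nanoluciferase, were expressed in K562 cells; luminescence was measured every 4 h from 2 to 18 h as percent of control (DMSO = 100%, positive control = 0%). A time point is decreased if signal falls significantly (2 sigma). Hits were called by the authors by a rule that is not shown; the count of time points alone does not decide it.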

Chains of the proteins cited; added tags and fusions are not shown. Lines headed by an entry give the natural chain unless they say otherwise; changes in a name come on top.
UniProt Q15208: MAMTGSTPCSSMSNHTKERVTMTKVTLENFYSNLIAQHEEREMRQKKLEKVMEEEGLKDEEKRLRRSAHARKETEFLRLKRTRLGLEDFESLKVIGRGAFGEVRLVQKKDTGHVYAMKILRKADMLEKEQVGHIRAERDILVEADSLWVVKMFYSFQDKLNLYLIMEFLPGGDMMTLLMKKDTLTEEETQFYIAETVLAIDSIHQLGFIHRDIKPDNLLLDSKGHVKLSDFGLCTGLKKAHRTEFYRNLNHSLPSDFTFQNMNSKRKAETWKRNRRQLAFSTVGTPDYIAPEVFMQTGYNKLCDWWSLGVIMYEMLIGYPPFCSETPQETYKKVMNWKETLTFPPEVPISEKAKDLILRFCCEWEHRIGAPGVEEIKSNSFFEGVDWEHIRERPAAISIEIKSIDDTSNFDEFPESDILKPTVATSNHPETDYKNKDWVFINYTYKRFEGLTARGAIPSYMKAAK
UniProt P42680: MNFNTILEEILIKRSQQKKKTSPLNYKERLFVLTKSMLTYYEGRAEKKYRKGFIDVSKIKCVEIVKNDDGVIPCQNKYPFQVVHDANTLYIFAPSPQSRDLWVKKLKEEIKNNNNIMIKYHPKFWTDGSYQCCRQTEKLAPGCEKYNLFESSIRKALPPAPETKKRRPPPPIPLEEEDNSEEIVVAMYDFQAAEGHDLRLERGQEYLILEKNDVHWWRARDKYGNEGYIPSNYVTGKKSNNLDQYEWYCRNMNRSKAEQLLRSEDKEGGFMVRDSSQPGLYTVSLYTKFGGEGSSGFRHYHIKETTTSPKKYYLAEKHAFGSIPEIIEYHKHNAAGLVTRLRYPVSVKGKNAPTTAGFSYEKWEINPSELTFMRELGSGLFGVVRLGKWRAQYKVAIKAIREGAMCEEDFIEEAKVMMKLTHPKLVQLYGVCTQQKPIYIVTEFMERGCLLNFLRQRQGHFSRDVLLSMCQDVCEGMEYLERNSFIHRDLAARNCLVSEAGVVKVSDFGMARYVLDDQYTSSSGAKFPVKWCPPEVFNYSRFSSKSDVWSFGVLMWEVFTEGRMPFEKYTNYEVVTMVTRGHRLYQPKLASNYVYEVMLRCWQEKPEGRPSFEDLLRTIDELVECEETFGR
UniProt P29597: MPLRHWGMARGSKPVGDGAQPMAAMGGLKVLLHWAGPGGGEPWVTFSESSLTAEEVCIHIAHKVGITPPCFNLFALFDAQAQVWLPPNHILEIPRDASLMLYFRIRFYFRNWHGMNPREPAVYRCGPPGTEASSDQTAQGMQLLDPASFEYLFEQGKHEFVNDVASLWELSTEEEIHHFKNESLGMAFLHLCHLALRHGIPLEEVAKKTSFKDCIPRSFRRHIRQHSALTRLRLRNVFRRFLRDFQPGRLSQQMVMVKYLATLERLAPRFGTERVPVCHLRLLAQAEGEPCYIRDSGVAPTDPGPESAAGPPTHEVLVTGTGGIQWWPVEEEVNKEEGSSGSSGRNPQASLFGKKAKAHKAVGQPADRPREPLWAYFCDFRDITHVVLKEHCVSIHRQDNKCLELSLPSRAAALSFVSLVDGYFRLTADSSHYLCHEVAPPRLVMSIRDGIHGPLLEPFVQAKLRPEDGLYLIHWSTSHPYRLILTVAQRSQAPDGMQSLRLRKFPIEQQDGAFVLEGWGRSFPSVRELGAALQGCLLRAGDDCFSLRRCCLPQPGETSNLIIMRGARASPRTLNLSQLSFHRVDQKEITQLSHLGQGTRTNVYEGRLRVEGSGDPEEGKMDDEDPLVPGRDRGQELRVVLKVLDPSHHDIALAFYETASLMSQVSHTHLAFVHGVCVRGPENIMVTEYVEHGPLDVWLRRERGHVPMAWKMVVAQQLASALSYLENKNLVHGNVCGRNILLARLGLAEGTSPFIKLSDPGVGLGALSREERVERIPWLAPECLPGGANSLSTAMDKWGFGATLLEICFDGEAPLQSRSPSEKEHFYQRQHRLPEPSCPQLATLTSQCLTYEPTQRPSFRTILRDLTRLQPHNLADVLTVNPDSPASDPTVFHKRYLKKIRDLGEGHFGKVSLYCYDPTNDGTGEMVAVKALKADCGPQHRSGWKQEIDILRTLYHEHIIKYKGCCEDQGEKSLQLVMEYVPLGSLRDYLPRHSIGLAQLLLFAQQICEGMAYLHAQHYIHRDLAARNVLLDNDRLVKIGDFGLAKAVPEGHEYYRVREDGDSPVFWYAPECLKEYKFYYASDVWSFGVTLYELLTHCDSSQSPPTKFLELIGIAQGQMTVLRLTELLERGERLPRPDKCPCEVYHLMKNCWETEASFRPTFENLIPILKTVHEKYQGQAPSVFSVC
UniProt Q6PHR2: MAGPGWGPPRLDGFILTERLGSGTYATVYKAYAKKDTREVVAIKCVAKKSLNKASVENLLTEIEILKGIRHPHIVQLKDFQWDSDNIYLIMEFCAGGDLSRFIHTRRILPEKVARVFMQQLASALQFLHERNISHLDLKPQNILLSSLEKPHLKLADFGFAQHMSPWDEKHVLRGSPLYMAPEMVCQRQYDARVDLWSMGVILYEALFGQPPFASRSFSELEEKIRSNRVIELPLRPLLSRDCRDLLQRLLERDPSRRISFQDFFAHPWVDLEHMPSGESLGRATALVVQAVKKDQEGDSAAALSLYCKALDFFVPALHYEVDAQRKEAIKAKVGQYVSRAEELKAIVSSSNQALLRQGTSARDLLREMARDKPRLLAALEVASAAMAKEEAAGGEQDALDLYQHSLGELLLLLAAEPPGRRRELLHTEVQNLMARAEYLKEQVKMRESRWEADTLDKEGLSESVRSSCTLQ
UniProt P07947, whole entry, looked up: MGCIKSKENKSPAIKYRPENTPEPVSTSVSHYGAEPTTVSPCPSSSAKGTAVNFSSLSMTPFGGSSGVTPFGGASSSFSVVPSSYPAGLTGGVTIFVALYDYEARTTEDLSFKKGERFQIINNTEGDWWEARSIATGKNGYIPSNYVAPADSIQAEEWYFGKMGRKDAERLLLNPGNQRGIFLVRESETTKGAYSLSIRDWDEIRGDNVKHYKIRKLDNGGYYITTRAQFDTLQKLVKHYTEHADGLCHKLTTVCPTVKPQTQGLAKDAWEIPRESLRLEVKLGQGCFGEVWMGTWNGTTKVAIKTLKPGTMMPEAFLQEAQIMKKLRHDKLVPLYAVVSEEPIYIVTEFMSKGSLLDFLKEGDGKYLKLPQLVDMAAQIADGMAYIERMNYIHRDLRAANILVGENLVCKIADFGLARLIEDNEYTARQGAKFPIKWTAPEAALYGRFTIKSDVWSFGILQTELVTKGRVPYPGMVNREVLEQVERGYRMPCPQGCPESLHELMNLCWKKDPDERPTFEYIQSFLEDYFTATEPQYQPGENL
UniProt P43403: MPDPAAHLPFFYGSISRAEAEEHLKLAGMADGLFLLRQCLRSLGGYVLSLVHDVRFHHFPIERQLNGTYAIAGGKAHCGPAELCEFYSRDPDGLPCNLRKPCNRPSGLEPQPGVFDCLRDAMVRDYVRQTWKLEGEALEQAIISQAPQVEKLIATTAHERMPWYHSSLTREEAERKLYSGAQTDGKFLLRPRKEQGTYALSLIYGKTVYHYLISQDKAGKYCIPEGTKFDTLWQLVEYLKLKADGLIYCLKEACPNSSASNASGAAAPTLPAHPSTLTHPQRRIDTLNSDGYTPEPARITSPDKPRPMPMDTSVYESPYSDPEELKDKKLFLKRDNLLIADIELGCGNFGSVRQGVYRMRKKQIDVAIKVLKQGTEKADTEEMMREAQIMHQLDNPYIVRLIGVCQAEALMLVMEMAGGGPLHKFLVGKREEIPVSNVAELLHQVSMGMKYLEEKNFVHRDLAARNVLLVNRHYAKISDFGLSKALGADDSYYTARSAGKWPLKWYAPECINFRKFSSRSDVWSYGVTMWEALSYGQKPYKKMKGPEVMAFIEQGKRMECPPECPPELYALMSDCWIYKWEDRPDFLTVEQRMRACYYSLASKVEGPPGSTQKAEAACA
UniProt P00519, whole entry: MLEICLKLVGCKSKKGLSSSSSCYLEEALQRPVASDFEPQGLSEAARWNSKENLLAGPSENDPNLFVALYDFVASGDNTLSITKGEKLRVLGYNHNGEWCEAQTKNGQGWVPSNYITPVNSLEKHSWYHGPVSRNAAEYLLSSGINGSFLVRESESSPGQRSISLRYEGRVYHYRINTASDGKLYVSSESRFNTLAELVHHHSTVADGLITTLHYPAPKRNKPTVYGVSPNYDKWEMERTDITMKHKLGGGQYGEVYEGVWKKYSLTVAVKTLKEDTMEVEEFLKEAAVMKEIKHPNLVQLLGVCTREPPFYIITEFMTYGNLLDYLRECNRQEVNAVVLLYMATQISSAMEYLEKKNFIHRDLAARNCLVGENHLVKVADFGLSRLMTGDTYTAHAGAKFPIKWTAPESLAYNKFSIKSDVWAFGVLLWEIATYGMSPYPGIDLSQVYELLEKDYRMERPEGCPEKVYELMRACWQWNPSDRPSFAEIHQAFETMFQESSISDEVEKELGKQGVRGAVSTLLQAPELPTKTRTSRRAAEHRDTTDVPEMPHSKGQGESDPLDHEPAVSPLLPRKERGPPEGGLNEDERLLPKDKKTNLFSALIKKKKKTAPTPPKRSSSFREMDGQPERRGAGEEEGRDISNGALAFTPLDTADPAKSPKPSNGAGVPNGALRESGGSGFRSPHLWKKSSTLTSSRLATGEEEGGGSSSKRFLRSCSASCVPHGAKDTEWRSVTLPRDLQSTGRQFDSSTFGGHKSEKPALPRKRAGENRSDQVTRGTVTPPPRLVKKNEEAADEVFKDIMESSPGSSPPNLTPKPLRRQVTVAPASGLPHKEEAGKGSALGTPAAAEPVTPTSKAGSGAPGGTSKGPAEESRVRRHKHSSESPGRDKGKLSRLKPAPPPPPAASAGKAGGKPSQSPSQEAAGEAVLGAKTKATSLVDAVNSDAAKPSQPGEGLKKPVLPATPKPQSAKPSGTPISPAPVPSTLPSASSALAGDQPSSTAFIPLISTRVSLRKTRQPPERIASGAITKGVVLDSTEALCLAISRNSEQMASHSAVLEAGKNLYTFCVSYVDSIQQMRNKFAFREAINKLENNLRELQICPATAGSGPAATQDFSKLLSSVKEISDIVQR
UniProt P31749: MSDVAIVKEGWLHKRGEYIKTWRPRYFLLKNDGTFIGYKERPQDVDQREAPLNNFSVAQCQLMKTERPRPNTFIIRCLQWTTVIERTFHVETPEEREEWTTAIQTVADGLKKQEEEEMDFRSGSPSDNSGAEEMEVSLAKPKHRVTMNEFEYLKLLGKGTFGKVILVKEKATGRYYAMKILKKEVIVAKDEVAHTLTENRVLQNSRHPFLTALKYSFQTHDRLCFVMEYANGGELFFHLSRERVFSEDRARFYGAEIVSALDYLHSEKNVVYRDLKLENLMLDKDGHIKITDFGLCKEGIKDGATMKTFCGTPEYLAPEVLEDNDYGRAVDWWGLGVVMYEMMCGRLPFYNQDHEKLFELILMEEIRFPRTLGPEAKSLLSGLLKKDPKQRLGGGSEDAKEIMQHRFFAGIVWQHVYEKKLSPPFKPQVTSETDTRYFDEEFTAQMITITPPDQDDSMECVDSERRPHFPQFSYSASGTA

Assays:
Conditions in all cases: K562; 2-18 h
STK38 = STK38 (UniProt Q15208); assay: kinase-Nluc reporter destabilization hit call (1 = scored as downregulated) (binary); higher = compound decreases kinase abundance
SYK = SYK (UniProt P43405); assay: as above
TEC = TEC (UniProt P42680); assay: as above
TYK2 = TYK2 (UniProt P29597); assay: as above
ULK3 = ULK3 (UniProt Q6PHR2); assay: as above
YES1 = YES1 (UniProt P07947); assay: as above
ZAK = ZAK (UniProt Q9NYL2); assay: as above
ZAP70 = ZAP70 (UniProt P43403); assay: as above
ABL1 = ABL1 (UniProt P00519); assay: number of time points (of 5) at which kinase-Nluc abundance scored as decreased, DMSO-normalised (count); higher = more persistent destabilization
AKT1 = AKT1 (UniProt P31749); assay: as above

Row | Structure (SMILES) | kinase-Nluc reporter destabilization hit call (STK38) | kinase-Nluc reporter destabilization hit call (SYK) | kinase-Nluc reporter destabilization hit call (TEC) | kinase-Nluc reporter destabilization hit call (TYK2) | kinase-Nluc reporter destabilization hit call (ULK3) | kinase-Nluc reporter destabilization hit call (YES1) | kinase-Nluc reporter destabilization hit call (ZAK) | kinase-Nluc reporter destabilization hit call (ZAP70) | number of time points (ABL1) | number of time points (AKT1)
1 | COc1cc(C(=O)N2CCC(N3CCN(C)CC3)CC2)ccc1Nc1ncc2c(n1)N(C)c1ccccc1C(=O)N2C (10 µM) | inactive: 0 | inactive: 0 | inactive: 0 | inactive: 0 | inactive: 0 | inactive: 0 | inactive: 0 | inactive: 0 | 0 | 0
2 | COc1ccc(CCNc2ncc3c(=O)n(-c4cccc(F)c4)c(=O)[nH]c3n2)cc1OC (2 µM) | inactive: 0 | inactive: 0 | inactive: 0 | inactive: 0 | inactive: 0 | inactive: 0 | inactive: 0 | inactive: 0 | 0 | 0
3 | CN(C)C(=O)c1ccc(S(=O)(=O)c2ccc(NC(=O)[C@@](C)(O)C(F)(F)F)c(Cl)c2)cc1 (10 µM) | inactive: 0 | inactive: 0 | inactive: 0 | inactive: 0 | inactive: 0 | inactive: 0 | inactive: 0 | inactive: 0 | 0 | 0
4 | O=Nc1c(-c2c(O)[nH]c3ccccc23)[nH]c2ccccc12 [Indirubin-3'-monoxime] (2.5 µM) | inactive: 0 | inactive: 0 | inactive: 0 | inactive: 0 | inactive: 0 | inactive: 0 | inactive: 0 | inactive: 0 | 0 | 0
5 | Cc1cnc(Nc2ccc(N3CCN(C)CC3)cc2)nc1Nc1cccc(S(=O)(=O)NC(C)(C)C)c1 (2.5 µM) | inactive: 0 | inactive: 0 | inactive: 0 | inactive: 0 | inactive: 0 | inactive: 0 | inactive: 0 | inactive: 0 | 0 | 0
6 | CCCCOc1ccc(CC/C=C2\SC(=O)N(CCN)C2=O)cc1 [K145 (hydrochloride)] (2.5 µM) | inactive: 0 | inactive: 0 | inactive: 0 | inactive: 0 | inactive: 0 | inactive: 0 | inactive: 0 | inactive: 0 | 0 | 0
7 | Cc1cc(Nc2cc(CN3CCOCC3)c3nc(C)c(Cc4ccc(Cl)cc4F)n3n2)n[nH]1 [Gandotinib] (2.5 µM) | inactive: 0 | inactive: 0 | inactive: 0 | inactive: 0 | inactive: 0 | inactive: 0 | inactive: 0 | inactive: 0 | 0 | 0
8 | CC1=C(C(=O)Nc2ccc3[nH]ncc3c2)C(c2ccc(F)cc2)NC(=O)N1 (stereo not given) (10 µM) | inactive: 0 | inactive: 0 | inactive: 0 | inactive: 0 | inactive: 0 | inactive: 0 | inactive: 0 | inactive: 0 | 0 | 0
9 | CCCNC(=O)c1cn2ncnc(Nc3cc(C(=O)NC4CC4)ccc3C)c2c1C (10 µM) | inactive: 0 | inactive: 0 | inactive: 0 | inactive: 0 | inactive: 0 | inactive: 0 | inactive: 0 | inactive: 0 | 0 | 0
10 | COc1nc(-c2cccc3c2OCCO3)ccc1Nc1ccc(CN(C)C)cc1 [RAS inhibitor Abd-7] (10 µM) | inactive: 0 | inactive: 0 | inactive: 0 | inactive: 0 | inactive: 0 | inactive: 0 | inactive: 0 | inactive: 0 | 0 | 0
11 | CC(C)(O)[C@@H]1CC[C@](C)([C@H]2[C@@H](O)C[C@@]3(C)[C@@H]4C[C@H](O[C@@H]5O[C@H](CO)[C@@H](O)[C@H](O)[C@H]5O)[C@H]5C(C)(C)[C@@H](O[C@@H]6OC[C@@H](O)[C@H](O)[C@H]6O[C@@H]6O[C@H](CO)[C@@H](O)[C@H](O)[C@H]6O)CC[C@@]56C[C@@]46CC[C@]23C)O1 [Astragaloside VI] (10 µM) | inactive: 0 | inactive: 0 | inactive: 0 | inactive: 0 | inactive: 0 | inactive: 0 | inactive: 0 | inactive: 0 | 0 | 0
12 | CC1(COc2ccc3c(c2)ncn3-c2ccc3cccc(N4CCC(N)CC4)c3n2)COC1 [Crenolanib] (2.5 µM) | inactive: 0 | inactive: 0 | inactive: 0 | inactive: 0 | inactive: 0 | inactive: 0 | inactive: 0 | inactive: 0 | 0 | 0
13 | O=C(c1ccc(Nc2nccc(-c3cc4ccccc4s3)n2)cc1)N1CCC(N2CCCC2)CC1 (2.5 µM) | inactive: 0 | inactive: 0 | inactive: 0 | inactive: 0 | inactive: 0 | inactive: 0 | inactive: 0 | inactive: 0 | 0 | 0
14 | Cc1cc2cc(Oc3ccnc(Nc4cccc(CS(=O)(=O)NCCN(C)C)c4)n3)ccc2[nH]1 [Sulfatinib] (10 µM) | inactive: 0 | inactive: 0 | inactive: 0 | inactive: 0 | inactive: 0 | inactive: 0 | inactive: 0 | inactive: 0 | 4 | 0
15 | O=c1cc(-c2ccc(O)c(O)c2O)oc2ccccc12 (10 µM) | inactive: 0 | inactive: 0 | inactive: 0 | inactive: 0 | inactive: 0 | inactive: 0 | inactive: 0 | inactive: 0 | 0 | 0
16 | O=[N+]([O-])c1ccc(Sc2cccc[n+]2[O-])c2nonc12 (2.5 µM) | inactive: 0 | inactive: 0 | inactive: 0 | inactive: 0 | inactive: 0 | inactive: 0 | inactive: 0 | inactive: 0 | 0 | 0
17 | CC(C)N(C)c1nc2cc(C(=O)O)ccc2nc1-c1ccc(F)cc1 (10 µM) | inactive: 0 | inactive: 0 | inactive: 0 | inactive: 0 | inactive: 0 | inactive: 0 | inactive: 0 | inactive: 0 | 0 | 0
18 | c1ccc(-c2nn3c(c2-c2ccnc4cc(OCCN5CCOCC5)ccc24)CCC3)nc1 (10 µM) | inactive: 0 | inactive: 0 | inactive: 0 | inactive: 0 | inactive: 0 | inactive: 0 | inactive: 0 | inactive: 0 | 0 | 0
19 | CC(=O)Nc1nc(C)c(-c2nc(N3CCCC(O)C3)no2)s1 (stereo not given) (10 µM) | inactive: 0 | inactive: 0 | inactive: 0 | inactive: 0 | inactive: 0 | inactive: 0 | inactive: 0 | inactive: 0 | 0 | 0
20 | Cc1cc(C(C)Nc2ccccc2)c2nc(N3CCOCC3)cc(=O)n2c1 (stereo not given) (10 µM) | inactive: 0 | inactive: 0 | inactive: 0 | inactive: 0 | inactive: 0 | inactive: 0 | inactive: 0 | inactive: 0 | 0 | 0
21 | N#C/C(=C\c1ccc2oc(=O)[nH]c2c1)C(=O)c1ccc(O)c(O)c1 (10 µM) | inactive: 0 | inactive: 0 | inactive: 0 | inactive: 0 | inactive: 0 | inactive: 0 | inactive: 0 | inactive: 0 | 0 | 0
22 | CC(C)(C)C(=O)N1N=CC[C@H]1c1ccccc1 (10 µM) | inactive: 0 | inactive: 0 | inactive: 0 | inactive: 0 | inactive: 0 | inactive: 0 | inactive: 0 | inactive: 0 | 0 | 0
23 | Cn1cc(-c2ccc(F)c(C(F)(F)F)c2)nc1C1CCN(c2ncnc3[nH]ncc23)CC1 (10 µM) | inactive: 0 | inactive: 0 | inactive: 0 | inactive: 0 | inactive: 0 | inactive: 0 | inactive: 0 | inactive: 0 | 0 | 0
24 | O=C1NC(=O)C(c2cn(-c3ccccc3)nc2-c2ccc(F)cc2)N1 (stereo not given) (10 µM) | inactive: 0 | inactive: 0 | inactive: 0 | inactive: 0 | inactive: 0 | inactive: 0 | inactive: 0 | inactive: 0 | 0 | 0
25 | O=C(Nc1cccc(-c2nncn2C2CC2)c1)c1cc(-n2cnc(C3CC3)c2)ccn1 (10 µM) | inactive: 0 | inactive: 0 | inactive: 0 | inactive: 0 | inactive: 0 | inactive: 0 | inactive: 0 | inactive: 0 | 0 | 0
26 | COc1ccc2c(Oc3ccc(NC(=O)c4c(C)n(CC(C)(C)O)n(-c5ccccc5)c4=O)cc3F)ccnc2c1 (2.5 µM) | inactive: 0 | inactive: 0 | inactive: 0 | inactive: 0 | inactive: 0 | inactive: 0 | inactive: 0 | inactive: 0 | 1 | 0
27 | CCOC(=O)c1c2c3c(cccc3[nH]c1=O)C(=O)c1ccccc1-2 (10 µM) | inactive: 0 | inactive: 0 | inactive: 0 | inactive: 0 | inactive: 0 | inactive: 0 | inactive: 0 | inactive: 0 | 0 | 0
28 | CC[C@@H]1[C@H](F)C(=O)N[C@@H]1COc1nccc2cc(C(N)=O)c(OC)cc12 (10 µM) | inactive: 0 | inactive: 0 | inactive: 0 | inactive: 0 | inactive: 0 | inactive: 0 | inactive: 0 | inactive: 0 | 0 | 0
29 | O=C(O)c1cc(O)c2c(c1)[C@@H]([C@H]1c3cc(C(=O)O)cc(O)c3C(=O)c3c(O[C@@H]4O[C@H](CO)[C@@H](O)[C@H](O)[C@H]4O)cccc31)c1cccc(O[C@@H]3O[C@H](CO)[C@@H](O)[C@H](O)[C@H]3O)c1C2=O [Sennoside B] (2.5 µM) | inactive: 0 | inactive: 0 | inactive: 0 | inactive: 0 | inactive: 0 | inactive: 0 | inactive: 0 | inactive: 0 | 0 | 0
30 | CN(C)Cc1cccc(N=C(c2ccccc2)c2c(O)[nH]c3cc(C(=O)N(C)C)ccc23)c1 (10 µM) | inactive: 0 | inactive: 0 | inactive: 0 | inactive: 0 | inactive: 0 | inactive: 0 | inactive: 0 | inactive: 0 | 0 | 0

Reprinted at random: 2 entries already listed
Row | Structure (SMILES) | kinase-Nluc reporter destabilization hit call (STK38) | kinase-Nluc reporter destabilization hit call (SYK) | kinase-Nluc reporter destabilization hit call (TEC) | kinase-Nluc reporter destabilization hit call (TYK2) | kinase-Nluc reporter destabilization hit call (ULK3) | kinase-Nluc reporter destabilization hit call (YES1) | kinase-Nluc reporter destabilization hit call (ZAK) | kinase-Nluc reporter destabilization hit call (ZAP70) | number of time points (ABL1) | number of time points (AKT1)
6 | CCCCOc1ccc(CC/C=C2\SC(=O)N(CCN)C2=O)cc1 [K145 (hydrochloride)] (2.5 µM) | inactive: 0 | inactive: 0 | inactive: 0 | inactive: 0 | inactive: 0 | inactive: 0 | inactive: 0 | inactive: 0 | 0 | 0
17 | CC(C)N(C)c1nc2cc(C(=O)O)ccc2nc1-c1ccc(F)cc1 (10 µM) | inactive: 0 | inactive: 0 | inactive: 0 | inactive: 0 | inactive: 0 | inactive: 0 | inactive: 0 | inactive: 0 | 0 | 0
